Measurements: patent publication US11072602B2, “Antidiabetic heterocyclic compounds” (Merck Sharp & Dohme Corp., priority 2016, dated 2021)
Some results were stated once for a whole list of compounds, not compound by compound.

The chains behind the UniProt entries cited, without tags or fusion partners.
UniProt O14842, whole entry: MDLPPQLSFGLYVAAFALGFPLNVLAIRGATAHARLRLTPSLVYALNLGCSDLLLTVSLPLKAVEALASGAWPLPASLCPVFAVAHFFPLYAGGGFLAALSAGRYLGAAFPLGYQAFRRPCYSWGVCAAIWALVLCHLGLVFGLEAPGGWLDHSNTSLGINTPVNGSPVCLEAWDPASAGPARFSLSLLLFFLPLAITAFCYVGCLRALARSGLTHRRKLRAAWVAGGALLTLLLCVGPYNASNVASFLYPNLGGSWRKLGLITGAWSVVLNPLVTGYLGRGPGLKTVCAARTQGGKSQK

Target: T1, human GPR40 (Homo sapiens, UniProt O14842)
T1 construct: expressed in transfected cells
Assay: Inositol Phosphate Turnover (IP1) Assay 2
Type: cell-based
Settings: HEK cells stably expressing human GPR40; read-out: EC50 values in the Inositol Phophate Turnover (IP1) Assay 2
Procedure: Human GPR40 stable cell-lines were generated in HEK cells. The expression plasmids were transfected using lipofectamine (Life Technologies) following manufacturer's instructions. Stable cell-lines were generated following drug selection and single cell cloning.
The assay is performed in 384-well format. HEK cells stably expressing human GPR40 are plated at 15,000 cells per well in growth medium (DMEM/10% fetal calf serum). Cell plates are then incubated 16 hours at 37 degrees in a 5% CO2 incubator.
Measurement of Inositol Phosphate Turnover (IP1) is performed using the CisBio IP-One kit (Part number 62IPAPEB). After the 16 hour incubation, the cells are washed with HEPES buffer and 10 ul of stimulation buffer (prepared as described in the kit) is added to each well. In a separate plate, compounds are diluted in DMSO (400-fold over the final concentration in the assay well) and 25 nl is acoustically transferred to the appropriate well in the assay cell plate. The plates are then incubated for 60 minutes at 37 degrees. 10 ul of detection buffer (also prepared as described in the IP-One kit) is added to each well and the plates are incubated for 60 minutes in the dark. The plates are then read in a Perkin Elmer EnVision or equivalent reader able to measure FRET. […]

With `C[C@H](C(=O)O)[C@H](c1ccc2c(c1)OC(C1CC3(C1)CN(c1ncccc1C(F)(F)F)C3)CC2)C1CC1` (single isomer, unassigned) [Example 2, (2S,3R)-3-cyclopropyl-2-methyl-3-((R or S)-2-(2-(3-(trifluoromethyl)pyridin-2-yl)-2-azaspiro[3.3]heptan-6-yl)chroman-7-yl)propanoic Acid] the EC50 was less than 6.5 µM.
